Where a name gives a salt, the structure may show the parent alone.
System: disorders of cardiac rhythm provoked by aconitine in rats
Assay type: in vivo
Conditions: therapeutical index of the new compound : therapeutical index of Lidocaine
Experimental: When examining the antiarrhythmic effects, rats were pre-treated intravenously with 1 mg/kg of aconitine to provoke disorders of cardiac rhythm [Med. Exp. (Basel) 10, 93 (1964)], thereafter the test compound was administered intravenously, and the dose required to restore the rhythm in 50% (ED50 mg/kg) was determined.

Structure (SMILES)	Ratio of indices
CCOc1ccc(C(=O)OC2C3CN(C)CC2CN(C)C3)cc1OC (stereo not shown) [3,7-Dimethyl-9-(3'-methoxy-4'-ethoxy-benzoyloxy)-3,7-diazabicyclo[3.3.1]nonane]	5
CN1CC2CN(C)CC(C1)C2Oc1ccc(Cl)cc1.O=C(O)/C=C/C(=O)O (stereo not shown) [3,7-Dimethyl-9-(4'-chlorophenoxy)-3,7-diazabicyclo[3.3.1]nonane fumarate]	21
CN1CC2CN(C)CC(C1)C2OC(c1ccccc1)c1ccccc1.O=C(O)/C=C/C(=O)O (stereo not shown) [3,7-Dimethyl-9-benzhydryloxy-3,7-diazabicyclo[3.3.1]nonane fumarate]	6
CN1CC2CN(C)CC(C1)C2OC(=O)c1ccccc1 (stereo not shown) [3,7-Dimethyl-9-benzoyloxy-3,7-diazabicyclo[3.3.1]nonane]	39
CCCCN1CC2CN(CCCC)CC(C1)C2OC(=O)c1ccc(Cl)cc1 (stereo not shown) [3,7-di-n-butyl-9-(4'-chlorobenzoyloxy)-3,7-diazabicyclo[3.3.1]nonane]	7
CCN1CC2CN(CC)CC(C1)C2OC(=O)c1ccc(Cl)cc1.Cl.Cl.O (stereo not shown) [3,7-diethyl-9-(4'-chloro-benzoyloxy)-3,7-diazabicyclo[3.3.1]nonane dihydrochloride monohydrate]	10
CN1CC2CN(C)CC(C1)C2OC(=O)c1ccc2ccccc2c1 (stereo not shown) [3,7-dimethyl-9-(2'-naphthoyloxy)-3,7-diazabicyclo[3.3.1]nonane]	58
CN1CC2CN(C)CC(C1)C2OC(=O)C1c2ccccc2Oc2ccccc21 (stereo not shown) [3,7-dimethyl-9-(xanthene-9'-carbonyloxy)-3,7-diazabicyclo[3.3.1]nonane]	16
CN1CC2CN(C)CC(C1)C2Oc1ccccc1.O=C(O)/C=C/C(=O)O (stereo not shown) [3,7-dimethyl-9-phenoxy-3,7-diazabicyclo[3.3.1]nonane fumarate]	12
CCN1CC2CN(C)CC(C1)C2OC(=O)c1ccc(Cl)cc1Cl (stereo not drawn) [3-Methyl-7-ethyl-9α-(2',4'-dichloro-benzoyloxy)-3,7-diazabicyclo[3.3.1]nonane dihydrochloride]	6
CCN1CC2CN(C)CC(C1)C2Oc1ccccc1Cl (stereo not drawn) [3-Methyl-7-ethyl-9α-(2'-chlorophenoxy)-3,7-diazabicyclo[3.3.1]nonanedihydrochloride]	8
CCN1CC2CN(C)CC(C1)C2Oc1ccc(Cl)cc1 (stereo not drawn) [3-Methyl-7-ethyl-9α-(4'-chlorophenoxy)-3,7-diazabicyclo[3.3.1]nonanedihydrochloride]	12
CCN1CC2CN(C)CC(C1)C2OC(=O)c1ccc(-c2ccccc2)cc1 (stereo not drawn) [3-Methyl-7-ethyl-9α-(4'-phenyl-benzoyloxy)-3,7-diazabicyclo[3.3.1]nonane]	6

Source: patent US4451473A, “3,7-Diazabicyclo [3.3.1] nonanes having anti-arrhythmic activity” (Richter Gedeon Vegyeszeti Gyar Rt., priority 1981, dated 1984)
